Measurements published in patent publication US7018810.
No constants are given. Whether binding was seen depends on the method and setting. In cells and extracts the contact can be indirect. Some entries that bind do so weakly or less than the wild type. Sequences can lack the tags named with a protein.

T1: human BMP4 protein (R&D Systems) (human) (UniProt P12644)
T1 sequence (looked up): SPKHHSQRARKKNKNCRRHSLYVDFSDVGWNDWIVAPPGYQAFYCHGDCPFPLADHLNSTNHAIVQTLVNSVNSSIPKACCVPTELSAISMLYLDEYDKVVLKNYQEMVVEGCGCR

B1: murine CHL-FLAG polypeptide (mature form) (protein)
chain: EQVKHSDTYCVFQDKKYRVGEKWHPYLEPYGLVYCVNCICSENGNVLCSRVRCPSLHCLSPVHIPHLCCPRCPDSLPPVNNKVTSKSCEYNGTTYQHGELFIAEGLFQNRQPNQCSQCSCSEGNVYCGLKTCPKLTCAFPVSVPDSCCRVCRGDAELSWEHADGDIFRQPANREARHSYLRSPYDPPPNRQAGGLPRFPGSRSHRGAVIDSQQASGTIVQIVINNKHKHGQVCVSNGKTYSHGESWHPNLRAFGIVECVLCTCNVTKQECKKIHCPNRYPCKYPQKIDGKCCKVCPGKKAKGALAGGPAFGGSGTDYKDDDDK
B2: murine CHD-FLAG protein (mature form) (protein)
chain: TGPEPPALPIRSEKEPLPVRGAAGCSFGGKVYALDETWHPDLGEPFGVMRCVLCACEAPQWARRGRGPGRVSCKNIKPQCPTLACRQPRQLPGHCCQTCPQERSNLDPQPAGLVFEYPRDPEHRSYSDRGEPGVGERTRADGHTDFVALLTGPRSQAVARARVSLLRSSLRFSVSYQRLDRPSRVRFTDPTGNILFEHPATPTQDGLVCGVWRAVPRLSVRLLRAEQLRVALVTSTHPSGEVWGPLIWQGALAAETFSAILTLEDPLQRGVGGIALLTLSDTEDSLHFLLLFRGLLGGLAQAPLKLQILHQGQLLRELQANTSAQEPGFAEVLPSLTDQEMDWLELGELQMVLEKAGGPELRISGYITTRQSCDVLQSVLCGADALIPVQTGAAGSASFILLGNGSLIYQVQVVGTGSEVVAMTLETKPQRKNQRTVLCHMAGLQPGGHMAVGMCSGLGARGAHMLLQNELFLNVGTKDFPDGELRGHVTALCYSGHSARYDRLPVPLAGALVLPPVRSQAAGHAWLSLDTHCHLHYEVLLAGLGGSEQGTVTAHLLGPPGMPGPQRLLKGFYGSEAQGVVKDLEPVLLRHLAQGTASLLITTKSSPRGELRGQVHIASQCEAGGLRLASEGVQMPLAPNGEAATSPMLPAGPGPEAPVPAKHGSPGRPRDPNTCFFEGQQRPHGARWAPNYDPLCSLCICQRRTVICDPVVCPPPSCPHPVQALDQCCPVCPEKQRSRDLPSLPNLEPGEGCYFDGDRSWRAAGTRWHPVVPPFGLIKCAVCTCKGATGEVHCEKVQCPRLACAQPVRANPTDCCKQCPVGSGTNAKLGDPMQADGPRGCRFAGQWFPENQSWHPSVPPFGEMSCITCRCGAGVPHCERDDCSPPLSCGSGKESRCCSHCTAQRSSETRTLPELEKEAEHSVDGSGTDYKDDDDK

How the values were obtained:
[1] = target: T1, human BMP4 protein (R&D Systems) (human); experiment: co-immunoprecipitation on anti-FLAG M2 agarose ('IP with anti-flag Ab'), reducing SDS-PAGE, Western blot with anti-BMP 2/4 goat polyclonal antibody
[2] = target: T1, human BMP4 protein (R&D Systems) (human); experiment: co-immunoprecipitation on anti-FLAG M2 agarose, Western blot with anti-BMP 2/4 antibody

| Binder | binding [1] | binding [2] |
| --- | --- | --- |
| B1 | binds | binds |
| B2 | binds | binds |
